These results are taken from article PMC10605218.

By UniProt entry, the sequences of proteins in these tests, tags left out. Where a name states a change or a piece, a line headed by the entry shows the natural chain unless it says otherwise.
UniProt Q13421: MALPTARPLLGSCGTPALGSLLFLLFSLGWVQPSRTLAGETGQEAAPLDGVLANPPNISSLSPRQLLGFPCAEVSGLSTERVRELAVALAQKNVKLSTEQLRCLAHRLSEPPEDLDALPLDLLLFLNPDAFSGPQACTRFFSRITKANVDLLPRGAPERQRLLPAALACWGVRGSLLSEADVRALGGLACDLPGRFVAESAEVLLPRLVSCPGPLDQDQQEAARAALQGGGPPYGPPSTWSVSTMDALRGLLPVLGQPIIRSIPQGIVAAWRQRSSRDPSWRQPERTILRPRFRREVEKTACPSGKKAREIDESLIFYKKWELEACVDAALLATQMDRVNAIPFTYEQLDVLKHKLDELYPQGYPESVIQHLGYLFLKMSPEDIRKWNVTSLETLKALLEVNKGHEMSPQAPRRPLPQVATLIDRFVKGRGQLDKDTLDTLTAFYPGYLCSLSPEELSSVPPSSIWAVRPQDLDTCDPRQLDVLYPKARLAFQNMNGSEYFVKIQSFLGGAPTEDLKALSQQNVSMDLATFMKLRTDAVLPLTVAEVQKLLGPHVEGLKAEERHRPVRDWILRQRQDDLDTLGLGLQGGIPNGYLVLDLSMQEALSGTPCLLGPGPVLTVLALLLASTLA

The assay has as its target T1, prostate stem cell antigen (PSCA) (human (endogenous in PANC1)) (UniProt O43653).
T1 sequence: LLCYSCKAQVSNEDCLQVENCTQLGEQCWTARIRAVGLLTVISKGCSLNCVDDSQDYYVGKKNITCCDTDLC
Kind of assay: co-IP; PANC1 cell membrane lysate; pre-cleared with protein A agarose beads and rabbit IgG; overnight immunoprecipitation with beads coupled with anti-PSCA antibodies; three washes with PBS; Western blot with anti-MSLN. For orientation: A western blot detects proteins with antibodies after separation by electrophoresis.

These are yes or no findings as the source states them, for the method shown. In cells and extracts the contact can be indirect. Binding can be weak; no strength is given.

Turning to Mesothelin (MSLN) (from UniProt Q13421), the binding result is “binds”.
